Data: patent publication US20120100074A1 (Teva, published 2012)
Results are given in words; binding and its absence hold for the method and conditions named. Some entries that bind do so weakly or less than the wild type.

By UniProt entry, the sequences of proteins in these tests, tags left out. Residues count along the entry.
UniProt O43557, residues 83-240: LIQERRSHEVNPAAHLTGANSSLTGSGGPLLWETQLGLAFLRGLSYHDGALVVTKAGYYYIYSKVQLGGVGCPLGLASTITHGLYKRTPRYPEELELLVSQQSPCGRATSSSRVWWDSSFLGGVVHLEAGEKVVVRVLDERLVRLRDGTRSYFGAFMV

B1: murine anti-LIGHT monoclonal antibody 5E10 (antibody, V domains shown)
VH: QVQLQQSGPELVKPGASVKISCKASGYSFTSYYIHWVKQRPGQGLEWIGWIFPGSDITKYNEKFKGKATLTADTSSSTAYMQLSSLTSEDSTVYFCTREDYGISTYSAMDFWGQGTSVTVSS
VL: DIVMTQSHKFMSTSVGDRVSITCKASQDVGTAVAWYQQKPGQSPKLLIYWASTRHTGVPDRFTGSGSGPDFTLTISNVQSEDLADYFCQQYSSYPLTFGSGTKLEIKR
B2: murine anti-LIGHT monoclonal antibody 13C7 (antibody, V domains shown)
VH: QVQLQQSGAELVRPGTSVRVSCKASGYAFTNYLIEWIKQRPGQGLEWIGVINPGSGDTKYNENFKGKATLTADISSSTAYLQLSSLTSDDSAVYFCAGWNYWGQGTTLTVSS
VL: DVVMTQTPLSLPVSLGDQASISCRSSQSLLHSNGNTYFHWYLQKPGQSPELLIYKVSNRFSGVPDRFSGSGSGTDFTLKISRVEAEDLGVYFCSQSTHVPYTFGGGTKLEIKR
B3: murine anti-LIGHT monoclonal antibody 14G8 (antibody, V domains shown)
VH: QVQLQQSGAELVRPGTSVQVSCKASGYSFTTYLIEWIKQRPGQGLEWIGVINPGTGETKYNENFRAKAIMTADKYSSTAYMQLSSLTADDSAVYFCARWDRWGQGTTLTVSS
VL: DVVMTQAPLSLPVSLGDQVSISCRSSQNLVHSNGNTYFHWYLQKPGQSPELLIYKVSNRFSGVPDRFSGSGSGTDFTLKISRVEAEDLGVYFCSQSTHVPYTFGGGTKLEIKR
B4: murine anti-LIGHT monoclonal antibody 10D11 (antibody, V domains shown)
VH: EIQLQQSGPDLVKPGASVKVSCKASGYSFTDYYIYWVRQSHGKSLEWIGYIDPYNGGTKYNQKFKDTASLTVDKSSSTAFMHLNSLTSEDSAVYYCARTSGSSWFPYWGQGTLVTVSA
VL: DIVLTQSPATLSVTPGDSVSLSCRASQSISNNLHWYQQKSHESPRLLIKYTYQSISGIPSRFSGSGSGTDFTLTINSVETEDFGMYFCQQSNRWPLTFGAGTKLELKR
notes: Mouse hybridoma monoclonal antibody; also called m10D11; mD10D11
B5: murine anti-LIGHT monoclonal antibody 18B1 (antibody, V domains shown)
VH: QVQLQQPGAELVRPGTSVKLSCKASGYSFTTYWMNWVKQRPGQDLEWIGMIHPSDSESRLNQKFIDKATLSADKSSSTAYMLLNSPTSEDSAVYYCAFGNYVWAMDYWGQGTSVTVSS
VL: DIVLTQSPASLVVSLGQRATISCRASKSVSTSGYTYMHWYQQKPGQPPKLLIYITSNLESGVPARFSGSGSGTDFTLNIHPVEEEDAATYYCQHSRELPYTFGGGTKLEIKR

biological target: LIGHT (TNFSF14), recombinant soluble protein (human) (UniProt O43557); test: binding assays (direct binding ELISA screen)

binding, binds:
B1, B2, B3, B4, B5
